According to PMC3380923, “Structure Analysis of Entamoeba histolytica DNMT2 (EhMeth)” (PLoS ONE, 2012):
A weaker result is weaker than the reference pair of the same experiment. Protein sequences can lack the tags named with them.

Target: T1, EhMeth (DNMT2) (Entamoeba histolytica) (UniProt Q6Q386)
T1 sequence (looked up): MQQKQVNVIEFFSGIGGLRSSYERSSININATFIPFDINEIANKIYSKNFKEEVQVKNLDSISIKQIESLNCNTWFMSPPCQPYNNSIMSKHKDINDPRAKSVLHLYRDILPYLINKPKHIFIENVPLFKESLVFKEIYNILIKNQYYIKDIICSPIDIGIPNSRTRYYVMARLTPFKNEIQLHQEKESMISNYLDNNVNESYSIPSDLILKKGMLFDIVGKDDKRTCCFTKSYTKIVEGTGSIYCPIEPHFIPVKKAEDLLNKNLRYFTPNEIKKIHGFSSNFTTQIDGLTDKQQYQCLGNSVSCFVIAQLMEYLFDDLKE
Test: EMSA
Settings: 10 mM Mg2+, 2-20 uM EhMeth, 50 mM HEPES pH 8.0, 50 mM KCl, 10 mM MgCl2, 1 mM EDTA, 0.5% (w/v) glycerol, 0.1 mg/ml BSA, 1 mM DTT, 25 min at room temperature, 1% agarose gel, 1x TAE, on ice, recombinant protein, residues 1-322, label: none (GelRed stain)

| Sequence | binding result (2 uM DNA, slight shift and smearing, not completely shifted) | binding result (2 uM RNA, free band fades, no defined shifted band) |
| --- | --- | --- |
| GATAGCGCTATC / TGATAGCGCTATC [M.HhaI co-crystal DNA duplex (as in PDB 1MHT)] | binds more weakly | – |
| CCCGCCUGUCACGCGGG [tRNAAsp anticodon stem-loop (17 nt)] | – | binds more weakly |
